# Library screen at single concentrations

From ChEMBL document CHEMBL3988442, “University of Dundee, Small-Polar-MMV Screening Library” (2021).

Results are given as percent effect. The record does not define 0% and 100%; most values in the screen are far below 50% and negative numbers occur (in some assays of this library far below -100). The compounds are a random part of those screened. Two or more numbers in one place are separate tests of the same structure; such repeats can differ widely.

Mtb cholesterol medium: 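Phenotypic screen: M. tuberculosis growth, cholesterol and DPPC medium, 4 days; the read-out is not stated. Compounds at 50 µM. Higher reads as more growth inhibition (inferred: compounds with an IC50 in retests scored well above the rest). About 69,000 compounds were tested under these conditions; 0.54% (about 370) showed 50% or more at least once.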
Mtb glucose medium: 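Growth of Mycobacterium tuberculosis over 3 days (7H9 medium with glucose and tyloxapol); the read-out is not stated. Tested at 50 µM. Higher reads as more growth inhibition (inferred: compounds with an IC50 in retests scored well above the rest). Of about 69,000 compounds tested this way, about 760 (1.1%) reached 50% or more in at least one test.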

compound	Mtb cholesterol medium	Mtb glucose medium
Cc1sc2nc(C(F)(F)F)nc(N3CCN(C)CC3)c2c1C	15.41	-1.392
CN(C)S(=O)(=O)N1CCC(c2nnc(C(F)(F)F)o2)CC1	24.49	18.72
CCC[C@@H]1CN(Cc2nnc(-c3cccc(F)c3)o2)C[C@H]1NC(C)=O	-19.69	-29.46
COc1cccc(CNC(=O)CCNS(=O)(=O)c2ccc(C)cc2)c1	11.68	21.01
O=C(O)C(F)(F)F.O=C(O)C(F)(F)F.[H][C@]12CCC(=O)N(c3cccnc3)[C@@]1([H])CCN2c1ncc(C)cn1	-8.596	-18.38 and -2.722
CCN(CC)Cc1cc(=O)n2c(n1)CN(C(=O)c1ccnnc1)CCC2.O=C(O)C(F)(F)F	4.101	2.49
O=C(O)c1cc(-c2cc[nH]n2)cc(S(=O)(=O)N2CCCCCC2)c1	2.772 and 4.328	-11.97 and 3.008
CN1CCN(c2ncc3c(=O)n(-c4cccc(F)c4)c(=O)[nH]c3n2)CC1	-7.028	1.514 and -1.01
CNS(=O)(=O)c1cccc(C(C)NCc2cccc(C)c2C)c1 (centres unmarked)	2.344	-5.211 and -28.57
O=C(c1cc2c(s1)CCC2)N1CCCC(c2cnccn2)C1 (centres unmarked)	13.75	18.04
O=C(O)C(F)(F)F.[H][C@@]12CCN(S(C)(=O)=O)CC[C@]1(C(=O)Nc1ccccc1)CCN2CC	10.02	13.17
Cc1cccc(CC2COCCN(Cc3nccn3C)C2)n1 (centres unmarked)	2.827	-2.959
CC(C)C(NC(=O)NCCNc1ncccn1)c1cccs1 (centres unmarked)	-8.88	-6.295
Cc1ccc(CN2CCCn3c(nc(Cn4ccnc4)cc3=O)C2)o1	-8.098	5.972
Cc1cc(C2CCCN2C(=O)CN2C(=O)OC(C)(C)C2=O)on1 (centres unmarked)	-14.48	5.253
CO[C@@H]1CC[C@@H](N(C)C(=O)COc2ccc(F)cc2)[C@H]1O	-9.641	-1.911
COCCN1CCC2(CCC(=O)N2Cc2csc(C)n2)CC1.O=C(O)C(F)(F)F.O=C(O)C(F)(F)F	-2.576	1.322
CN(CCCC1CCCO1)C(=O)c1cccc(C#N)c1 (centres unmarked)	9.982	21.34
CN(C)c1ccc2c(c1)CN(C(=O)c1cnccn1)C2c1cnco1 (centres unmarked)	-33.57	-61.55 and -12.14
Cn1c(=O)c2c(n3ncnc13)NC(=O)CC2c1ccc(F)cc1 (centres unmarked)	-0.9017	24.28
COc1cccc(CNCCc2cccc(C(N)=O)c2)c1	-5.687	-1.544 and -30.52
CCS(=O)(=O)N1Cc2nccn2CC(Cn2cncn2)C1 (centres unmarked)	-1.875	-14.78
Cc1ccsc1CN1CCc2c(nc(N3CCCCC3C)[nH]c2=O)C1 (centres unmarked)	1.369	-7.264
O=C(O)C(F)(F)F.[H][C@@]12C[C@H](C(=O)N3CCCC3)[C@@]([H])(CN(CC(C)C)C1)O2	26.75	28.72
[H][C@]12CC[C@]([H])(CN(Cc3nnc(C4CC4)o3)C1)N(CC1CCC1)C2	-4.113	-6.953
CSCc1cc(C(=O)NC2(C#N)CCSC2)ccc1F (centres unmarked)	1.032	-10.6
Cc1ncc(CN2Cc3ccccc3O[C@]3(CC[C@H](CO)CC3)C2)cn1.Cl	-2.889	-6.403
O=C(c1ccco1)N1CCC12CCN(c1ncc(F)cn1)CC2	-0.6023	-8.961
Cn1ccc(NCc2cc3cc(F)ccc3o2)n1	-14.53	-18.82
CCCc1cc(NCCCC2CCOC2)n2nccc2n1 (centres unmarked)	6.222	29.99
Cc1cc2c(N)nc(=O)n(CC(=O)Nc3cccc(Cl)c3)c2s1	29.91	51.59
O=C(O)C(F)(F)F.O=C(O)C(F)(F)F.[H][C@@]12CN(Cc3cccnc3)C[C@]1([H])[C@@H](OC)CCN2S(=O)(=O)N(C)C	3.479	-3.927 and 8.519
O=C(c1ccoc1)N1CCC2(C1)CN(c1ncc(F)cn1)C2	2.839	1.517 and -3.392
Cc1noc(C(C)C)c1C(=O)NCc1cccc(N(C)C)c1	-26.86	-28.51
CCCn1ncc(C(=O)N(C)Cc2n[nH]c3c2CCC3)c1C	7.491	0.2134 and 13.34
CN(CCc1cn[nH]c1)C(=O)C(c1ccc(F)cc1)N(C)C (centres unmarked)	-16.62	-28.19
CC(C)CCC(=O)NCCc1ccn(-c2ccccc2)n1	36.24	32.89
CC(=O)N[C@@H]1CN(C(=O)c2cc(C)oc2C)C[C@H]1c1ccc(C)o1	-17.89	-10.05
CCCC(C)NC1CCN(c2ccc(-n3ccnc3C)cc2)CC1 (centres unmarked)	5.027 and -5.714	11.28
O=C1CCCN1CC1CN(C(=O)CC2CCCC2)Cc2nccn2C1 (centres unmarked)	3.979	-13.95

The first 3 entries again:

Cc1sc2nc(C(F)(F)F)nc(N3CCN(C)CC3)c2c1C read Mtb cholesterol medium: 15.41%; Mtb glucose medium: -1.392%.
CN(C)S(=O)(=O)N1CCC(c2nnc(C(F)(F)F)o2)CC1 read Mtb cholesterol medium: 24.49%; Mtb glucose medium: 18.72%.
CCC[C@@H]1CN(Cc2nnc(-c3cccc(F)c3)o2)C[C@H]1NC(C)=O read Mtb cholesterol medium: -19.69%; Mtb glucose medium: -29.46%.